{"source": "PubChem BioAssay AID1508600", "about": "(Functional Genomics Laboratory (NCATS/FGL), 2020)", "note": "The whole screen tested about 53,000 sequences, of which about 3,700 (7%) were called active.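 Rule for the calls: active = gene knockdowns whose robust z-score for IL-1 alpha signal is at least 2 or at most -2, so actives lie on both sides; inactive = the rest.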 The list shows a part of the results.", "data": [{"assay": "Components of the Cytosolic LPS Sensing Pathway: Gene Identification via Genome-wide siRNA Screen;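 note: robust z of the log signal after scaling to non-targeting control siRNA wells of the plate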", "settings": "RAW264.7 macrophages, IL-1a HTRF, actives lie on both sides, screened at 100 nM (by protocol), cells primed 5 h with Pam3CSK4 first", "method_in_brief": "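Mouse macrophage line RAW264.7 is transfected with siRNA (100 nM final), grown 48h, primed with TLR ligand Pam3CSK4 5 h and given intracellular LipidA 24 h. IL-1a in supernatant is read by HTRF and viability by luminescence.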", "values": [{"sequence": "GGAUGUGAGCACAUCUUCUTT against Bard1", "z-score": "inactive: 0.762"}, {"sequence": "GGUCUUGGUAUCAUAUAUGTT against Nrep", "z-score": "inactive: 0.16"}, {"sequence": "GGCCUUUGUACAGGACCCATT against Tor2a", "z-score": "inactive: -1.01"}, {"sequence": "GGAAGGAGAAAGAGUAUGATT against Mnt", "z-score": "inactive: 0.525"}, {"sequence": "GGAUCUGCUCACAUAGUCATT against Slc2a2", "z-score": "inactive: -0.826"}, {"sequence": "GGAACUUGUUUCAUAUCGUTT against Scfd1", "z-score": "inactive: 0.839"}, {"sequence": "GCUAAUUGCUCCGUACUCCTT against Gm11961", "z-score": "inactive: 0.655"}, {"sequence": "GGAUCCAGACACCUCAAGATT against Vxn", "z-score": "inactive: 0.702"}, {"sequence": "CCACGAAAACGUGAAAUAUTT against Gpd1l", "z-score": "inactive: -0.0886"}, {"sequence": "GGGUAUGGCAUAAAUGUCCTT against Zpbp", "z-score": "active: -2.75"}, {"sequence": "CCAAUUUACGACAAAUCGUTT against Entpd4", "z-score": "inactive: -0.56"}, {"sequence": "GGAUGACUUCACUAAGAUUTT against Dpys", "z-score": "inactive: 1.33"}, {"sequence": "GCUCGCACAGAAGUUACAATT against Lrrc42", "z-score": "inactive: -0.486"}, {"sequence": "CCAGUAUACCUAUGACUGCTT against Apba3", "z-score": "inactive: 0.621"}, {"sequence": "GCUCAACGAACAUUUAUAGTT against Usp26", "z-score": "inactive: -0.158"}, {"sequence": "GCGAAUUUGCCUCUUACUATT against Rad9a", "z-score": "inactive: 0.394"}, {"sequence": "CCCUACGGACCGUAAAUAGTT against Psg16", "z-score": "inactive: -0.0808"}, {"sequence": "GGUUUGAAUGUCACCGGCATT against Defb29", "z-score": "inactive: -1.22"}, {"sequence": "CCGUAUGAACGUGUGAUAATT against Rasef", "z-score": "inactive: 0.142"}, {"sequence": "GGUACCAUUCUGCACUACATT against Kcnh6", "z-score": "inactive: -0.443"}, {"sequence": "GCACAAAGAUCCCUCUUCATT against Olfr1162", "z-score": "inactive: 0.89"}, {"sequence": "CGUUUCCUGCUCAAAUCCUTT against Abhd2", "z-score": "inactive: -1.17"}, {"sequence": "GGAGCAGGAGGUGUAUGUATT against Efs", "z-score": "inactive: -0.771"}, {"sequence": "GGACCUAGAGGAAGUGAAATT against Apoa1", "z-score": "inactive: -0.65"}, {"sequence": "GCCUGGUUAAGGCAUGAUATT against Gm4884", "z-score": "active: 2.63"}, {"sequence": "GGACUUUUAAGUUUGUAUGTT against Grpel1", "z-score": "inactive: -0.39"}, {"sequence": "CCUUCAGUAGGAGUGCUGCTT against Peg3", "z-score": "inactive: 0.445"}, {"sequence": "GGCUGCUCUUGAAAAUGAUTT against Tspan14", "z-score": "inactive: -0.839"}, {"sequence": "CCCUCAAUAGUGCUGGUUATT against Galp", "z-score": "inactive: -0.467"}, {"sequence": "GGCUUUGUGCAAGGUCAUUTT against Hcrtr1", "z-score": "inactive: -0.881"}]}]}
